Laboratory results from the supplement of paper PMC10735217.
Structures can show the parent of a compound that is named as a salt. This is one part of the list. Repeats in this data set agree poorly, so a single value says little.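 Human kidney-derived cells stably carry a construct in which eight TEAD-binding elements drive luciferase, measured by luminescence in a drug-repurposing library screen. A hit is any compound whose signal exceeds the plate mean by more than five robust Z scores.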

Test system: HEK293A TEAD-LUC reporter
Test: TEAD-luciferase reporter activity (YAP activation), robust Z score vs plate; higher = stronger YAP/TEAD activation
Settings: 24 h

| Structure (SMILES) | TEAD-luciferase reporter activity (compound concentration: 200 nM) | TEAD-luciferase reporter activity (compound concentration: 2 uM) | TEAD-luciferase reporter activity (compound concentration: 10 uM) |
| --- | --- | --- | --- |
| CCCCCCCCCCCCCCCC[n+]1ccccc1 [Cetylpyridinium chloride] | inactive: 0.426 | inactive: -1.77 | inactive: -2.05 |
| CCCCCCCCCCCCCC(=O)O[C@@H]1[C@@H](C)[C@@]2(O)[C@@H](C=C(CO)C[C@]3(O)C(=O)C(C)=C[C@@H]23)[C@@H]2C(C)(C)[C@]12OC(C)=O [Phorbol 12-myristate 13-acetate] | active: 31.6 | active: 13.7 | active: 15.8 |
| CC1=C(N2CC2)C(=O)C(CO)=C(N2CC2)C1=O | inactive: -0.425 | inactive: -2.94 | inactive: -1.8 |
| CC1(C)C2=CC[C@@H]3[C@H](CC[C@@]4(C)[C@H]3CC[C@]4(C)O)[C@@]2(C)Cc2cnoc21 | inactive: 0.96 | inactive: 0.425 | inactive: 0.282 |
| c1ccc2cc(C34CNCC3C4)ccc2c1 (stereo not drawn) | inactive: -1.25 | inactive: 2.05 | inactive: 1.54 |
| CN(CCO)C(=O)c1ccc(C(=C2CCN(Cc3cscn3)CC2)c2cccc3cccnc23)cc1 | inactive: -1.68 | inactive: 0.334 | inactive: 4.84 |
| N#Cc1ccc(N2CCN(C(=O)COc3ccc4[nH]cc(CCN)c4c3)CC2)cc1 [donitriptan mesylate] |  | inactive: -1.16 |  |
| N#Cc1ccc(N2CCN(C(=O)COc3ccc4[nH]cc(CCN)c4c3)CC2)cc1 [Donitriptan monohydrochloride] | inactive: -3.33 |  | inactive: 4.67 |
| O=C1CP(=O)(O)[O][Pt-2]2([NH2+]C3CCCCC3[NH2+]2)[O]1 (stereo not drawn) | inactive: -1 | inactive: 0.0729 | inactive: 0.477 |
| CCCC(c1ccc(CCCl)cc1)c1c(O)c2ccccc2oc1=O (stereo not drawn) | inactive: 0.137 | inactive: -0.982 | inactive: -1.17 |
| CCN1C[C@]2(COC(=O)c3ccccc3N3C(=O)C[C@H](C)C3=O)CC[C@H](OC)[C@]34C1[C@](O)([C@@H](OC)[C@H]23)[C@@]1(O)C[C@H](OC)[C@H]2C[C@@H]4[C@@H]1[C@H]2OC | inactive: 0.0424 | inactive: 2.94 | inactive: -0.972 |
| CN(CC(N)=O)C(=O)N(CCCl)N=O | inactive: -0.049 | inactive: 0.546 | inactive: 1.33 |
| CN1CCCCC12Cc1ccccc1CN(C(=O)Cc1ccccc1)C2 (stereo not drawn) | inactive: -2.84 |  | inactive: -1.9 |
| CN(C)C(Cc1ccccc1)c1ccccc1 (stereo not drawn) | inactive: 0.335 | inactive: -1.24 | inactive: 1.68 |
| O=C(O)CNC(=O)Oc1cc(-c2oc3cc(O)cc(O)c3c(=O)c2O)ccc1O | inactive: 4.81 | inactive: -0.687 | inactive: 1.23 |
| CC(Cc1ccc(Cl)cc1)NC(=O)OC(C)(C)C (stereo not drawn) | inactive: -1.84 | inactive: -0.144 | inactive: -0.682 |
| COc1cc(NC(=O)C(=O)c2c(C)n(Cc3ccc(Cl)cc3)c3ccc(C)cc23)ccn1 | inactive: -1.91 | inactive: 1.73 | inactive: 0.844 |
| O.O.O.O.O.O.O.O.O=[N+]([O-])[O][Bi].O=[N+]([O-])[O][Bi].O=[N+]([O-])[O][Bi].O=[N+]([O-])[O][Bi].[O]=[Bi][OH] [Bismuth subnitrate] | inactive: 0.482 | inactive: 3.55 | inactive: 3.95 |
| Oc1ccc(C(O)C2CCCCN2)cc1O (stereo not drawn) | inactive: 0.41 | inactive: -0.633 | inactive: -0.966 |
| CC(Cc1ccc(O)cc1)NCC(O)c1cc(O)cc(O)c1 (stereo not drawn) [fenoterol] |  | inactive: 0.0875 |  |
| CC(Cc1ccc(O)cc1)NCC(O)c1cc(O)cc(O)c1 (stereo not drawn) [fenoterol, NIH] | inactive: 0.131 |  | inactive: -1.94 |
| CSc1cccc(N(C)C(=N)Nc2cc(SC)ccc2Cl)c1 | inactive: -1.27 | inactive: -1.41 | inactive: 1.67 |
| CCN(CC)CCOC(=O)C(O)(c1ccccc1)c1ccccc1 | inactive: -1.41 | inactive: -0.506 | inactive: -0.494 |
| COCC1(CO)C(=O)C2CCN1CC2 (stereo not drawn) | inactive: 0.119 | inactive: -1.78 | inactive: -0.104 |
| O=C(C1CCCN1C(=O)c1ccccc1)N1CCC(N2CCCC2=O)CC1 (stereo not drawn) | inactive: 1.64 |  | inactive: 2.85 |
| CNC(=O)OC1CN2CCC1C2 (stereo not drawn) | inactive: -1.94 | inactive: -1.88 | inactive: 1.05 |
| CC(Oc1ccc(Cl)cc1Cl)C(=O)O (stereo not drawn) | inactive: -1.28 | inactive: 0.0161 | inactive: -0.747 |

A run of entries taken from the entries so far, for reference:

| Structure (SMILES) | TEAD-luciferase reporter activity (compound concentration: 200 nM) | TEAD-luciferase reporter activity (compound concentration: 2 uM) | TEAD-luciferase reporter activity (compound concentration: 10 uM) |
| --- | --- | --- | --- |
| CSc1cccc(N(C)C(=N)Nc2cc(SC)ccc2Cl)c1 | inactive: -1.27 | inactive: -1.41 | inactive: 1.67 |
| CCN(CC)CCOC(=O)C(O)(c1ccccc1)c1ccccc1 | inactive: -1.41 | inactive: -0.506 | inactive: -0.494 |
